Reference: article doi:10.1101/2025.06.10.658793
Read-outs that look alike come from different tables or passages of the source. These are yes or no findings as the source states them, for the method shown. For part of these data: In cells and extracts the contact can be indirect. Some results given as binding are weak or reduced against the parent protein; the word gives no strength. For part of these data: Tags and fused reporters may be left off the sequences shown.

By UniProt entry, the sequences of proteins in these tests, tags left out.
UniProt P08393: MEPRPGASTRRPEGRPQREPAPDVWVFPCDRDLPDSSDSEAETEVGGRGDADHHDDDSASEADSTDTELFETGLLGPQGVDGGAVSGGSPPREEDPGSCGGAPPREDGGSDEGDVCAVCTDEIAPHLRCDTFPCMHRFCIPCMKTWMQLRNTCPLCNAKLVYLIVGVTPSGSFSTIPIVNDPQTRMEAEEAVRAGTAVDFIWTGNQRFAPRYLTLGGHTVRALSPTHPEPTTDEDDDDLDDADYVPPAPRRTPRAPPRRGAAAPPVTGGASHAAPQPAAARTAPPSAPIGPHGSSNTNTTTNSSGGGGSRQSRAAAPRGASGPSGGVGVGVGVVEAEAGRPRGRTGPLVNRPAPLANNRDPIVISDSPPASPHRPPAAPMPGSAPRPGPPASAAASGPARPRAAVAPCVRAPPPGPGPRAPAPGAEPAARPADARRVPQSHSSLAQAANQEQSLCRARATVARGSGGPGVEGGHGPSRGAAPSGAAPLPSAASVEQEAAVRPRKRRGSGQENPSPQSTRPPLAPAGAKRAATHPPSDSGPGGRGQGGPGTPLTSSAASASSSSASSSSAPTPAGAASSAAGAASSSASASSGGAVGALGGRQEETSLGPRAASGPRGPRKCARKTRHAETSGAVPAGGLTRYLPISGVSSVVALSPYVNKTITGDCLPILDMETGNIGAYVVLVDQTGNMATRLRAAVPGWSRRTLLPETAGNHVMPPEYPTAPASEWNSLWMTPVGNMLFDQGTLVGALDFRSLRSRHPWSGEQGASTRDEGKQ

Key:
Myc-tagged WT RAP80 = biological target: T1, Myc-tagged WT RAP80 (UniProt Q96RL1); assay: co-IP
T1 sequence: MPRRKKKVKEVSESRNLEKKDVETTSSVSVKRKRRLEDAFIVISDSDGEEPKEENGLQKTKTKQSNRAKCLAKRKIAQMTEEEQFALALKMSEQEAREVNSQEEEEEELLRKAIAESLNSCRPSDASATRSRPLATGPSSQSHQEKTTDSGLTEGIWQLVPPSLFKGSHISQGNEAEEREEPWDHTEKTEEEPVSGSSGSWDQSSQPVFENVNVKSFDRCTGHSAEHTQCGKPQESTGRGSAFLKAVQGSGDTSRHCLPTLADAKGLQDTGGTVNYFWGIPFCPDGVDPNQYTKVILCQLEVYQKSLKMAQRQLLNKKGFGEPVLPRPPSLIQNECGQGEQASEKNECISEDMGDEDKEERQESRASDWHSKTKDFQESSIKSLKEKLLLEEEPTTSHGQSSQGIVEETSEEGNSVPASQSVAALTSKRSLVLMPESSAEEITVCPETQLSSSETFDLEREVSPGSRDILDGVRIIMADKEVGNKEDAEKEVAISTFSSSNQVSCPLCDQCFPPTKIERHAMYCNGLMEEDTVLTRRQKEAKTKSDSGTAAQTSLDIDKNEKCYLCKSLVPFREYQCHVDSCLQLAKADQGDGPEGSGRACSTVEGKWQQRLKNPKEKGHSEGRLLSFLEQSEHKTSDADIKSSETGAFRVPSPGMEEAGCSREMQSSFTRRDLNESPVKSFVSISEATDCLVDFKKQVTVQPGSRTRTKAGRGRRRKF

Flag-tagged RAP80 [1] = biological target: T2, Flag-tagged RAP80 (UniProt Q96RL1); assay: pull-down
T2 sequence: T1 sequence

[2] = biological target: RAP80 3KR mutant (precipitated with anti-Flag) (UniProt Q96RL1); assay: pull-down
ubiquitinated RAP80 = biological target: T3, ubiquitinated RAP80 (UniProt Q96RL1); assay: pull-down
T3 sequence (chain, ubiquitinated (sites and chain type not stated for this sample)): T1 sequence

[3] = biological target: ubiquitinated RAP80 3KR mutant (UniProt Q96RL1); assay: pull-down
Flag-tagged RAP80 [4] = biological target: T2, Flag-tagged RAP80; assay: pull-down; remark: listed apart in the source

Measured: binding

Flag-tagged ICP0 (from UniProt P08393 1-775)
binds: Myc-tagged WT RAP80

purified ubiquitinated ICP0 (from UniProt P08393 1-775)
binds: Flag-tagged RAP80 [1] | [2] | ubiquitinated RAP80 | [3] | Flag-tagged RAP80 [4]
